These are yes or no findings as the source states them, for the method shown. For some assays here: In cells and extracts the contact can be indirect. Some binding calls cover weakened binding; strength is not graded here.
These binders were tested against JUN1 (fragment of c-JUN that includes the DNA binding domain and leucine zipper domain) (UniProt P05412) (assay: forward yeast two-hybrid, peptide in bait vector pDD, JUN1 prey, growth in the absence of uracil).

Sequences of proteins named here, by UniProt entry; tags and fusion partners are left off. A change or cut given only in a name is not applied to a line headed by its entry. Residues count along the entry.
UniProt P05412: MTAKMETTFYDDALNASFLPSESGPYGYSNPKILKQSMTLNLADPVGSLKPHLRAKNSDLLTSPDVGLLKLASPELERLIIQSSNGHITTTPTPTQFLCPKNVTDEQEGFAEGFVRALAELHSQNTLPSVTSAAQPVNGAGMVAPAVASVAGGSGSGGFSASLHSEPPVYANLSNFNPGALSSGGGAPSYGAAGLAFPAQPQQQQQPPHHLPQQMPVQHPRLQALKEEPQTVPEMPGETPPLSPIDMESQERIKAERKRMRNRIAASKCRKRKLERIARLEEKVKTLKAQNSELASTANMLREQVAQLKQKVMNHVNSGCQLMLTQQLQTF
JUN1 (fragment of c-JUN that includes the DNA binding domain and leucine zipper domain): residues 252-331 of P05412

Binder | binding
RSDYKDDDDKIYSSILWGTKWCVLLVITP [Peptide SP20] | binds
RSDYKDDDDKKDSIRRRGENISSQEVEAVLMSHPEVVNAAVYPVRGD [Peptide SP22] | binds
RSDYKDDDDKLYQSLLTATKELLFVAPVAKAFTSCD [Peptide SP24] | binds
RSDYKDYWWGPFIPPFFWRLNKI [Peptide SP29] | binds
Peptide SP30 (peptide) peptide: RSDYKDDDDKVYAYFGNTGDVVEVGVDLVGIAGVAHAQAADPQGQQQQGQQAGQEEQADTD | binds
RSDYKDDDDNTPHSSDGHNNP [Peptide SP32] | binds
RSDYKDDDDKAYQSIKWPM [Peptide SP33] | binds
RSDYKDDDDKAYQSINSSPVLPENSQELSLHLKQHVTKS [Peptide SP34] | binds
RSDYKDDDDKAYQSIRSGGIESSSKRER [Peptide SP35] | binds
RSDYKDDDDKGLQGRRRQGYQSIKP [Peptide SP36] | binds
Peptide SP58 (peptide) peptide: RSDYKDDDDKAYQSIMAVAAQQPVAFLVGRQRRRGQVGIDSGDQHLRTPLFHELCRRRPCSLAWYQLMHRYRY | binds
RSDYKDDDDKANQLPKILAGRLIFIKC [Peptide SP60] | binds
Peptide SP66 (peptide) peptide: RSDYKDDDDKAYQSIIGAGKSTLIKALTGVYHADRGTIWLEGQAISPKNTAHAQQCRRRPCSLTWYQLMHRYRY | binds
RSDYKDPFFWRLNKIFYFIDSRVAAAILN [Peptide SP71] | binds
Peptide SP4 (peptide) peptide: RSDYKDDDDKAYQSMFCESRFLDNASAPAMRNAKRRSEERVLCNLTVHRKHILHKITSDDLFRTAFCRNPFIFYGHKMMRMID | binds
RSDYKDDDDKAYQSIKWPM [Peptide SP79] | binds
RSDYKDDDDKAYQSSTGSAAILFNFRRMGIVIIIQI [Peptide SP80] | binds
RSDYKDDDDKAY [Peptide SP5] | binds
RSDYKDDDDKAYQSKRL [Peptide SP6] | binds
RSDYKDDDDKAYQSIIANEEEREKNFASSKKDGSYTDLL [Peptide SP8] | binds
RSDYKDDDDKAYQESTKALVEGGADLILIETVLVVVVLVV [Peptide SP12] | binds
RSDYKDDDDKAYQSIIH [Peptide SP18] | binds

Each binder was assayed against c-Jun (Homo sapiens, UniProt P05412) (assay: co-immunoprecipitation from co-transfected HEK293 cells, anti-FLAG capture of peptide, anti-c-Jun western blot).

Binder | binding
RSDYKDDDDKIYSSILWGTKWCVLLVITP [Peptide SP20] | binds
Peptide SP30 (peptide) peptide: RSDYKDDDDKVYAYFGNTGDVVEVGVDLVGIAGVAHAQAADPQGQQQQGQQAGQEEQADTD | binds
RSDYKDDDDKAYQSIRSGGIESSSKRER [Peptide SP35] | binds

The binders below were run against JUN1 (fragment of c-JUN that includes the DNA binding domain and leucine zipper domain) (UniProt P05412) (assay: forward yeast two-hybrid, growth of yeast colonies).

Binder | binding
RSDYKDDDDKKDSIRRRGENISSQEVEAVLMSHPEVVNAAVYPVRGD [Peptide SP22] | binds
